For assay [1], the target named is desmoglein-1 (DSG1) (human (endogenous in K562S and K562R)) (UniProt Q02413). As to the kind of experiment: co-IP; endogenous DSG1, Erbin, NIK, TRAF3, CHIP and c-cbl in K562S and K562R cell lysates; also K562R cells treated with 2 μg/ml anti-FAM167A neutralizing antibody or isotype control for 3 h; lysis buffer 20 mM Tris-HCl pH 8.0, 150 mM NaCl, 1% Triton X-100, 10% glycerol, 2 mM EDTA; Protein G Sepharose beads, 4 °C; immunoblot.

Chains of the proteins cited; added tags and fusions are not shown. Lines headed by an entry give the natural chain unless they say otherwise; changes in a name come on top. Residues count along the entry.
UniProt Q02413, residues 50-1049: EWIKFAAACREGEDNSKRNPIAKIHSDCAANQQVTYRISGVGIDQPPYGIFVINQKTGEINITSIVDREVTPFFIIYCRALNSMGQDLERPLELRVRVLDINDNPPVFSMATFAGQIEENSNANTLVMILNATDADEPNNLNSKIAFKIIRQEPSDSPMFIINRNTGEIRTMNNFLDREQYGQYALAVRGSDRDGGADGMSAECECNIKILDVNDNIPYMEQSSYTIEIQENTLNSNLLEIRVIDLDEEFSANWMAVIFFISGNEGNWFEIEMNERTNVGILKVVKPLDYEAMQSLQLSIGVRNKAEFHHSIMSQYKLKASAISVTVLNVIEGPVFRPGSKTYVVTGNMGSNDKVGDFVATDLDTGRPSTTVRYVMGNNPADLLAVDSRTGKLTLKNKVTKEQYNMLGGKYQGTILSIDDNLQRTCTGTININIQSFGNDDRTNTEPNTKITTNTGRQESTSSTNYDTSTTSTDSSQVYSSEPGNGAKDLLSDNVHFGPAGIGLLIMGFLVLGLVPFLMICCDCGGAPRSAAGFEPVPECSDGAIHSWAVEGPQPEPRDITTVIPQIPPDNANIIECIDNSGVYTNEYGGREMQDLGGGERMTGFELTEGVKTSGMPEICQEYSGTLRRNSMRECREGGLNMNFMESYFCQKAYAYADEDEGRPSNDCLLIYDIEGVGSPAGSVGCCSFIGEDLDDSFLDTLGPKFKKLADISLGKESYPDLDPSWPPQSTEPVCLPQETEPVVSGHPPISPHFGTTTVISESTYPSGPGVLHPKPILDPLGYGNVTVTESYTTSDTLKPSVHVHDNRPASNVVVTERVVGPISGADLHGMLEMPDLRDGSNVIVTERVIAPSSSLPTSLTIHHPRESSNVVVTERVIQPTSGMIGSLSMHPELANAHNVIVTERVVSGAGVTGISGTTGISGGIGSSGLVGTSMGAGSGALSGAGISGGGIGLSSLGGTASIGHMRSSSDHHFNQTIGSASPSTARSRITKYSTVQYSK
UniProt Q9UNE7: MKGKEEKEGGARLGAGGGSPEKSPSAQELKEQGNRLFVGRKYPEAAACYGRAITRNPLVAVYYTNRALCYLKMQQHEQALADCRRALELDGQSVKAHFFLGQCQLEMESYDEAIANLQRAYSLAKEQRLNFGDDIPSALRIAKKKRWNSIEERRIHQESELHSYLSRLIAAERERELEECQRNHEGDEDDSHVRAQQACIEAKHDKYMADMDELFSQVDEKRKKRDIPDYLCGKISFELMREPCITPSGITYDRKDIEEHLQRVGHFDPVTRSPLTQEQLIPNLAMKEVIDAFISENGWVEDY
UniProt Q99558: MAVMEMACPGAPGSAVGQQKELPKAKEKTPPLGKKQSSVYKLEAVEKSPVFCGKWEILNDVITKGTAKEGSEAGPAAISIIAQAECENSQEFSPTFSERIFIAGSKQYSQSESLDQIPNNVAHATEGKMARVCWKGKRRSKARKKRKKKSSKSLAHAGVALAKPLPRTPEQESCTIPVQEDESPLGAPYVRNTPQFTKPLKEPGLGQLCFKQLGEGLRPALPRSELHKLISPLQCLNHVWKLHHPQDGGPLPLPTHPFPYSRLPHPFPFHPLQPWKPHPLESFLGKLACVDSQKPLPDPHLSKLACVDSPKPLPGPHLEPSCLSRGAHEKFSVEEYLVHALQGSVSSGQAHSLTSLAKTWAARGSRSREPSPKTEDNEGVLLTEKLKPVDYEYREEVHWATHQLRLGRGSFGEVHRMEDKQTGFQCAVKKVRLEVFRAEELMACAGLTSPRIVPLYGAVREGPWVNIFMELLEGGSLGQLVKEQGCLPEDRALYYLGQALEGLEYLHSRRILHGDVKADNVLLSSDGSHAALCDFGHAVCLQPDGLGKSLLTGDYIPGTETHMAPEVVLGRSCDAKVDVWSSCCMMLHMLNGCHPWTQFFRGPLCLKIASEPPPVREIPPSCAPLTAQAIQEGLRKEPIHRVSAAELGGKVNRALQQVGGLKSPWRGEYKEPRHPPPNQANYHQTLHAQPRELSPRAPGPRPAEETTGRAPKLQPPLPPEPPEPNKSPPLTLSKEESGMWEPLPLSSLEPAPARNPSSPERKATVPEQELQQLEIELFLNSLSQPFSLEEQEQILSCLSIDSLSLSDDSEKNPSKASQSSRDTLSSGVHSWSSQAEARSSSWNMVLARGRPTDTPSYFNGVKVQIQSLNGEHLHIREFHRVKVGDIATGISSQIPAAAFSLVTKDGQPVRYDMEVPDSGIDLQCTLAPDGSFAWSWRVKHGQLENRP
UniProt Q96KS9: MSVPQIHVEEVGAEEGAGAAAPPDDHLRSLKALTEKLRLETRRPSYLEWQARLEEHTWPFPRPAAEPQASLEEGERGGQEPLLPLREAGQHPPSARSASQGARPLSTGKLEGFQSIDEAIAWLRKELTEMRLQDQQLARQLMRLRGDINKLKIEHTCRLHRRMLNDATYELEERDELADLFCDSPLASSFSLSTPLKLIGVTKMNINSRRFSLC

The target is the same in assay [2]. Nature of the assay: co-IP; endogenous proteins in K562R cell lysates; lysis buffer 20 mM Tris-HCl pH 8.0, 150 mM NaCl, 1% Triton X-100, 10% glycerol, 2 mM EDTA; Protein G Sepharose beads, 4 °C; immunoblot. On the technique in general: In western blotting, separated proteins are transferred to a membrane and probed.

For 3 substances, binding results are on record in PMC8892744.

No constants are given. Whether binding was seen depends on the method and setting. In cells and extracts the contact can be indirect. Some results given as binding are weak or reduced against the parent protein; the word gives no strength.

“CHIP (from UniProt Q9UNE7 1-303) (enzyme)”: in assay [1], the binding result is listed as “no binding”. Same read-out and setting: the value for “NF-κB-inducing kinase (NIK) (from UniProt Q99558 1-947) (enzyme)” was “binds”. For the substance “FAM167A (endogenous, K562R cells) (from UniProt Q96KS9 1-214)”, the binding entry in assay [2] is reported as “binds”.
